Experimental findings from ChEMBL document CHEMBL3046102, “Antibacterial and antifungal activities of some trimethoprim salts” (2012) are described below.

This assay concerns Escherichia coli. The assay can be described thus: microbe, parasite or virus in culture. The assay is classed as functional. The following applies: ATCC 35218.

In brackets after ≈: the same amount, converted by molar mass.

The molecule `O=C(N[C@H](CO)[C@H](O)c1ccc([N+](=O)[O-])cc1)C(Cl)Cl` [CHLORAMPHENICOL] yielded an MIC of 50 µg/mL (≈ 155 µM).
